Measurements taken from patent US20060014834A1, “Retinoid solutions and formulations made therefrom” (priority 2004, published 2006).
At least one structure is not confirmed: it was looked up by name or label, or the drawing left a doubt.

Tests used:
[1] = Elevated temperature stability of the actives in the oil in water emulsion of Example 10; assay type: physicochemical; conditions: Example 10 emulsion
Description: The elevated temperature stability of the actives in the oil in water emulsion of Example 10 was determined using techniques within the purview of those skilled in the art.

[2] = Elevated temperature stability of the actives in the liquid to powder suspension system of Example 13; assay type: physicochemical; conditions: Example 13 suspension
Description: The elevated temperature stability of the actives in the liquid to powder suspension system of Example 13 was determined using techniques known to those skilled in the art.

CCC[C@@H]1C[C@@H](C(=O)N[C@@H]([C@H]2O[C@H](SC)[C@H](OP(=O)(O)O)[C@@H](O)[C@H]2O)[C@H](C)Cl)N(C)C1 [Clindamycin, Clindamycin phosphate]
active content, 25° C., 2 months ([1]; 25° C., 2 months): 0.975% | active content, 25° C., 3 months ([1]; 25° C., 3 months): 0.975% | active content, 30° C., 1 month ([1]; 30° C., 1 month): 0.958% | active content, 30° C., 2 months ([1]; 30° C., 2 months): 0.958% | active content, 30° C., 3 months ([1]; 30° C., 3 months): 0.958% | active content, Initial ([1]; initial): 0.975% | active content, 25° C., 1 month ([2]; 25° C., 1 month): 0.999% | active content, 25° C., 2 months ([2]; 25° C., 2 months): 0.990% | active content, 25° C., 3 months ([2]; 25° C., 3 months): 1.02% | active content, 30° C., 1 month ([2]; 30° C., 1 month): 0.991% | active content, 30° C., 2 months ([2]; 30° C., 2 months): 0.977% | active content, 30° C., 3 months ([2]; 30° C., 3 months): 1.01% | active content, Initial ([2]; initial): 1.00%
